From patent US7323541B2 (Takeda Pharmaceutical Company Limited, priority 2001, dated 2008)

Test: Fmoc solid-phase peptide synthesis; 2-chlorotrityl resin; DCC/HOBt; PyAOP/HOAt/DIEA for pseudoproline dipeptide
Details: whole synthesis, scale 0.25 mmol

With SFRNGVGSGVKKTSFRRA the isolated mass (acetate) was 107.0 mg and the crude mass (acetate (rat TGR23-2 ligand (1-18))) was 219.4 mg.

Where no end group is shown, it is not given here.
